Our source for the MIC values is US20260345508A1, “CETYLPYRIDINIUM CHLORIDE HYDRATE-CONTAINING SILICON NANOPARTICLE COMPOSITION AND TECHNOLOGY OF APPLYING SAME” (priority 2022, published 2026).

One experiment deals with E. coli ATCC 8739. Nature of the experiment: Antimicrobial activity, broth microdilution MIC, E. coli ATCC 8739. Type of experiment: cell-based. Particulars: Escherichia coli, ATCC8739, MHIIB, 35° C., 20 to 24 hours. On the procedure:
(§1) • Test purpose: evaluation of antimicrobial activity of Example 1 against the following test strains • Test strain: S. aureus FDA 209P (MSSA), E. coli ATCC 8739, S. aureus MU-3 (MRSA), P. aeruginosa ATCC 27853 • Test method: broth microdilution method according to Clinical Laboratory Standards Institute • (i) Each strain stored at −80° C. is applied to MHII agar and cultured at 35° C. for 16 to 20 hours, • (ii) The cultured bacteria are suspended in MHIIB to McFarland 0.5, and the suspensions are diluted 100-fold and adjusted to a bacterial count of about 10^6 CFU/mL with MHIIB. • (iii) Each compound stock solution is prepared with MHIIB to the top dose shown in the next section, and 2-fold dilution is repeated with MHIIB to prepare compound-containing media. • (iv) Each compound-containing medium in (iii) is dispensed in an amount of 50 μL into a 96-well plate, followed by inoculation with 50 μL of each bacterial liquid in (ii). Culture is performed at 35° C. for 20 to 24 hours. • Determination method: The lowest concentration at which no bacterial growth is observed with the naked eye is regarded as the minimum inhibitory concentration.

Another experiment has as its system S. aureus FDA 209P. The experiment can be described thus: Antimicrobial activity, broth microdilution MIC, S. aureus FDA 209P. Type of experiment: cell-based, S. aureus FDA 209P (MSSA). Particulars: Staphylococcus aureus, FDA209P, MHIIB, 35° C., 20 to 24 hours. On the procedure: as §1
The test system of another experiment is S. aureus MU3. The experiment can be described thus: Antimicrobial activity, broth microdilution MIC, S. aureus MU3. In kind it is cell-based, S. aureus MU-3 (MRSA). Particulars: Staphylococcus aureus, MHIIB, 35° C., 20 to 24 hours. On the procedure: as §1
The next experiment deals with P. aeruginosa ATCC 27853. The experiment can be described thus: Antimicrobial activity, broth microdilution MIC, P. aeruginosa ATCC 27853. In kind it is cell-based. Particulars: Pseudomonas aeruginosa, ATCC27853, MHIIB, 35° C., 20 to 24 hours. On the procedure:
as §1

Some results are limits rather than exact numbers.

With `CCCCCCCCCCCCCCCC[n+]1ccccc1` [CPC, cetylpyridinium chloride hydrate], the MIC is 200 µg/mL in the experiment with E. coli ATCC 8739, 5 µg/mL with S. aureus FDA 209P, 32 µg/mL in the experiment with S. aureus MU3 and over 1000 µg/mL against P. aeruginosa ATCC 27853.
